Taken from: PubChem BioAssay AID1224826 (NIAID, 2016)
Shown is a random part of about 17,000 reagents tested. About 1,110 of all reagents (6.6%) were called active. 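Active means lowered or raised reporter signal; replicate intensities are raw and not normalised per plate.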 A number with no mark means an inactive call. Further read-outs or replicates are left out here.

Aim: 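Knock-downs that raise or lower Tnf reporter signal after endotoxin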 (primary screen)
Cells: RAW264.7 G9 macrophages from mouse bearing reporters for p65 (GFP) and the Tnf promoter (mCherry)
Knock-down reagent: siRNA pool against mouse genes, 100 nM
Timing: 16 h of LPS stimulation, after 2 days of siRNA transfection
Conditions: bacterial lipopolysaccharide (Salmonella minnesota R595), 10 ng/ml
Measured: 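Imaged Tnf reporter mCherry in nuclei, minus background, normalised per plate to the median and expressed as robust z-scores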
Direction: Tnf reporter robust z-score: higher = stronger Tnf promoter reporter signal after LPS
Rule for the call: 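Called active when robust z-score is at most -1.3, matching the median of the Tlr4 knock-down control, or over 3; control wells and wells with under 50 cells never active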
Meaning of the calls: active = Tnf reporter clearly lowered or raised; inactive = no clear change in Tnf reporter

Tmc2 → fewer than 50 cells in well = fewer than 50 cells per well; well left out of calls
Cdc20 → Tnf reporter robust z-score = -1.14; fewer than 50 cells in well = enough cells in well
Akap10 → Tnf reporter robust z-score = 0.28; fewer than 50 cells in well = enough cells in well
Ttc39a → fewer than 50 cells in well = fewer than 50 cells per well; well left out of calls
Ier2 → Tnf reporter robust z-score = 3.26 (active); fewer than 50 cells in well = enough cells in well
Kif13a → Tnf reporter robust z-score = -0.42; fewer than 50 cells in well = enough cells in well
Gm5148 → Tnf reporter robust z-score = -0.36; fewer than 50 cells in well = enough cells in well
Dusp2 → Tnf reporter robust z-score = 1.99; fewer than 50 cells in well = enough cells in well
Suco → Tnf reporter robust z-score = 1.34; fewer than 50 cells in well = enough cells in well
Plbd2 → Tnf reporter robust z-score = -1.23; fewer than 50 cells in well = enough cells in well
4833408A19Rik → fewer than 50 cells in well = fewer than 50 cells per well; well left out of calls
Etv1 → Tnf reporter robust z-score = -0.11; fewer than 50 cells in well = enough cells in well

In a second layout: entries from further up
{"target":"Ttc39a","fewer than 50 cells in well":"fewer than 50 cells per well; well left out of calls"}
{"target":"Ier2","Tnf reporter robust z-score":"3.26 (active)","fewer than 50 cells in well":"enough cells in well"}
{"target":"Kif13a","Tnf reporter robust z-score":-0.42,"fewer than 50 cells in well":"enough cells in well"}

Additional results:
Cdr2 → Tnf reporter robust z-score = 0.04; fewer than 50 cells in well = enough cells in well
Gm10283 → Tnf reporter robust z-score = -1; fewer than 50 cells in well = enough cells in well
Nsd3 → Tnf reporter robust z-score = -0.04; fewer than 50 cells in well = enough cells in well
Camk1d → Tnf reporter robust z-score = 3.18 (active); fewer than 50 cells in well = enough cells in well
Agr3 → Tnf reporter robust z-score = -0.17; fewer than 50 cells in well = enough cells in well
Doc2g → Tnf reporter robust z-score = 1.74; fewer than 50 cells in well = enough cells in well
Atxn2l → Tnf reporter robust z-score = 1.5; fewer than 50 cells in well = enough cells in well
Htra3 → Tnf reporter robust z-score = -0.69; fewer than 50 cells in well = enough cells in well
Tceal5 → Tnf reporter robust z-score = 0.12; fewer than 50 cells in well = enough cells in well
